# ± gives the standard deviation of the averaged measurements. The list shows a part of the results, in another mix than the full data.
# Amino acid sequences for entries named in this document (tags omitted). A change or cut given only in a name is not applied to a line headed by its entry.
# UniProt Q8IWB1: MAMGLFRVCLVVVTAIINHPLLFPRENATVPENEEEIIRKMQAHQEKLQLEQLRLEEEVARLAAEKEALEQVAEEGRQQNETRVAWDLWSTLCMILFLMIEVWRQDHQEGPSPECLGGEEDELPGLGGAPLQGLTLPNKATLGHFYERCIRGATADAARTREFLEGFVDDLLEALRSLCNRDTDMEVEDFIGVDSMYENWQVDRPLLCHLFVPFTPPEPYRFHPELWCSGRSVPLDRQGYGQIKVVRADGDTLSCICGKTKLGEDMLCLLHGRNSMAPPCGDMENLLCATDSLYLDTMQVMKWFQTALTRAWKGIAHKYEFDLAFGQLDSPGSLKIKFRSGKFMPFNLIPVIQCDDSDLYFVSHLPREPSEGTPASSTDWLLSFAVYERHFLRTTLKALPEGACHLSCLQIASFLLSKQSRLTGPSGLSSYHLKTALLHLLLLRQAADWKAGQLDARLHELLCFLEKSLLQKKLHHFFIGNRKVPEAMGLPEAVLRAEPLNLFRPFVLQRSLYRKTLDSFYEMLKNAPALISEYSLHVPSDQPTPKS
# UniProt Q8IUI8: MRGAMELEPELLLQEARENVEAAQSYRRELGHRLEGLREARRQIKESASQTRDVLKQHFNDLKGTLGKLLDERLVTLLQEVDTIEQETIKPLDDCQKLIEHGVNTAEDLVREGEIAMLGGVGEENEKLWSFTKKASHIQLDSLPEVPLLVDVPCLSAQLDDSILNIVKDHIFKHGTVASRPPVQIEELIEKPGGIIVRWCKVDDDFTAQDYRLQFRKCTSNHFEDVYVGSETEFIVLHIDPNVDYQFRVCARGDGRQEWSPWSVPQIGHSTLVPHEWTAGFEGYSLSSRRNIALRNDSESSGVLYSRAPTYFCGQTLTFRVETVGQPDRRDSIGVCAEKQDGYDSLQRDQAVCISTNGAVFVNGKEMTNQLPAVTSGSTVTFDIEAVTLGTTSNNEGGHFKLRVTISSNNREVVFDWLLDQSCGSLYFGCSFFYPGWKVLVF
# UniProt Q8N806: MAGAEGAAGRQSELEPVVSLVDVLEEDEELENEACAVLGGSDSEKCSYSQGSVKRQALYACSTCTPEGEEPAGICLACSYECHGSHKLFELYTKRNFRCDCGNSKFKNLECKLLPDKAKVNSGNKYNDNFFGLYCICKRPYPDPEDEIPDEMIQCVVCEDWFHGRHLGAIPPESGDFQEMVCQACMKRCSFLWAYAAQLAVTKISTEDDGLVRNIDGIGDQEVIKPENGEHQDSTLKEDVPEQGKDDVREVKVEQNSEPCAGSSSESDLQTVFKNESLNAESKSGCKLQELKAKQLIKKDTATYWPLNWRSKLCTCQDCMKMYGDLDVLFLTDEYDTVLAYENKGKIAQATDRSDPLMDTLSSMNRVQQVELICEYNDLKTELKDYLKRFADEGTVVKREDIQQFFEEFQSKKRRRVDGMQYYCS
# UniProt Q8N511: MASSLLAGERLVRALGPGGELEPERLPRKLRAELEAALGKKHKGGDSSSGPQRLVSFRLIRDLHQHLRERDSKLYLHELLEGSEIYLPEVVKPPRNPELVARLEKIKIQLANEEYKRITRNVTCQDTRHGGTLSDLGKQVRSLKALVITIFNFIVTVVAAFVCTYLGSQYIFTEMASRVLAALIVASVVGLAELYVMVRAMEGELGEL
# UniProt Q8IYW5, whole entry: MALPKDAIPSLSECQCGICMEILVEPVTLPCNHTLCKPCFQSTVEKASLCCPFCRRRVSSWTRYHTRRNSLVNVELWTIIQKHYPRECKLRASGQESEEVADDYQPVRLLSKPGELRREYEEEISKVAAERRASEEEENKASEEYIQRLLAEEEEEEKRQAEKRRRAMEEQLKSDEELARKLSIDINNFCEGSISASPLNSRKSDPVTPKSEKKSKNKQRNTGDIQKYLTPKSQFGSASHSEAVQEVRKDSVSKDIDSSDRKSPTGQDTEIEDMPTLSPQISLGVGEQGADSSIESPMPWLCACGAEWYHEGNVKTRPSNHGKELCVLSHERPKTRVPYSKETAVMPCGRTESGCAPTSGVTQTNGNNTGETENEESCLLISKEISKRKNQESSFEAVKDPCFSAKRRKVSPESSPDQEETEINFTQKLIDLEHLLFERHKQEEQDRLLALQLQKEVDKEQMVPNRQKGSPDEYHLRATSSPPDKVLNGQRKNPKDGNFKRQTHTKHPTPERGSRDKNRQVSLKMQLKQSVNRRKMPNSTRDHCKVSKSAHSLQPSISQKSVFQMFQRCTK
# UniProt Q8N5Y8: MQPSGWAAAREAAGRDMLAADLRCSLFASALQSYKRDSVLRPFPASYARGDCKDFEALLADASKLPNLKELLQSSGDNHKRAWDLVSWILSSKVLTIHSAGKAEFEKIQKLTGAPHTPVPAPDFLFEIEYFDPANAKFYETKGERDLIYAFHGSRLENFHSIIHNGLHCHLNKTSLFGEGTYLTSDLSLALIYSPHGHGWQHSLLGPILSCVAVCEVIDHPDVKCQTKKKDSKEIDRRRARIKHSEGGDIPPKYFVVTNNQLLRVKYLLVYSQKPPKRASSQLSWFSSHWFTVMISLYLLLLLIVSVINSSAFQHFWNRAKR
# UniProt Q86V48: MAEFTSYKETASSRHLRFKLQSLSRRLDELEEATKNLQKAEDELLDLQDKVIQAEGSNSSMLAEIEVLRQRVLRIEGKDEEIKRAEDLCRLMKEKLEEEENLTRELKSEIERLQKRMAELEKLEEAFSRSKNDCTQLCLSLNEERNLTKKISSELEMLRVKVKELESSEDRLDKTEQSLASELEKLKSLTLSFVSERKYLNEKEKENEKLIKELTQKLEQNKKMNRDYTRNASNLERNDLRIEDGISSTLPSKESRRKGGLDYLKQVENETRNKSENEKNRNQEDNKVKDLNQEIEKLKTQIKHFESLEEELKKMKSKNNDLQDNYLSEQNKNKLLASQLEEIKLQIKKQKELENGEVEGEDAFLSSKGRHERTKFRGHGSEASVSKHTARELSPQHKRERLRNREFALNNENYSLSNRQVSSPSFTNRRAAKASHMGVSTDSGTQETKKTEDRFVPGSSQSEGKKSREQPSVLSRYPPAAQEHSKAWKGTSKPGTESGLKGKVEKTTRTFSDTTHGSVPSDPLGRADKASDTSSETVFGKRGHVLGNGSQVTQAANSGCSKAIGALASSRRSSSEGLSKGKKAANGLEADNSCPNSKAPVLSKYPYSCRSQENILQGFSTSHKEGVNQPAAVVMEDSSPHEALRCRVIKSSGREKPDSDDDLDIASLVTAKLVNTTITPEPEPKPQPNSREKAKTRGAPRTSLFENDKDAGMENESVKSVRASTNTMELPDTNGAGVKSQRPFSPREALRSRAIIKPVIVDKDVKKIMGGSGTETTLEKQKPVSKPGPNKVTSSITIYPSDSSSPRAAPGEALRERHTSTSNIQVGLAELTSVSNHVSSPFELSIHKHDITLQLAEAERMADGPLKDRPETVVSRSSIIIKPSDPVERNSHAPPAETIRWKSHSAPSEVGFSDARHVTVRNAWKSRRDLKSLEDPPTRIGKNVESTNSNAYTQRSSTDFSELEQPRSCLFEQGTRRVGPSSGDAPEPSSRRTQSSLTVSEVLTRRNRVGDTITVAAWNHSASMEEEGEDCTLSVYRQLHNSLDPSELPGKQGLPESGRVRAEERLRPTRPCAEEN
# UniProt Q86YM7: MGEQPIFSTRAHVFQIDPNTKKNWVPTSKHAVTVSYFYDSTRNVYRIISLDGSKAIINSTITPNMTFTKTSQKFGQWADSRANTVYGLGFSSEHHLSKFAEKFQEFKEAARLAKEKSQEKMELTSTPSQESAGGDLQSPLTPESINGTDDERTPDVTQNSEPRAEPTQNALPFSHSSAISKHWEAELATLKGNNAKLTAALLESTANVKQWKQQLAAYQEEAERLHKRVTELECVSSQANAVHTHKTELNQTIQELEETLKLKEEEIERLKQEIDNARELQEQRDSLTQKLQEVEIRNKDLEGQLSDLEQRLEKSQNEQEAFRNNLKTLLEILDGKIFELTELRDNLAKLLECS
# UniProt Q8IY22: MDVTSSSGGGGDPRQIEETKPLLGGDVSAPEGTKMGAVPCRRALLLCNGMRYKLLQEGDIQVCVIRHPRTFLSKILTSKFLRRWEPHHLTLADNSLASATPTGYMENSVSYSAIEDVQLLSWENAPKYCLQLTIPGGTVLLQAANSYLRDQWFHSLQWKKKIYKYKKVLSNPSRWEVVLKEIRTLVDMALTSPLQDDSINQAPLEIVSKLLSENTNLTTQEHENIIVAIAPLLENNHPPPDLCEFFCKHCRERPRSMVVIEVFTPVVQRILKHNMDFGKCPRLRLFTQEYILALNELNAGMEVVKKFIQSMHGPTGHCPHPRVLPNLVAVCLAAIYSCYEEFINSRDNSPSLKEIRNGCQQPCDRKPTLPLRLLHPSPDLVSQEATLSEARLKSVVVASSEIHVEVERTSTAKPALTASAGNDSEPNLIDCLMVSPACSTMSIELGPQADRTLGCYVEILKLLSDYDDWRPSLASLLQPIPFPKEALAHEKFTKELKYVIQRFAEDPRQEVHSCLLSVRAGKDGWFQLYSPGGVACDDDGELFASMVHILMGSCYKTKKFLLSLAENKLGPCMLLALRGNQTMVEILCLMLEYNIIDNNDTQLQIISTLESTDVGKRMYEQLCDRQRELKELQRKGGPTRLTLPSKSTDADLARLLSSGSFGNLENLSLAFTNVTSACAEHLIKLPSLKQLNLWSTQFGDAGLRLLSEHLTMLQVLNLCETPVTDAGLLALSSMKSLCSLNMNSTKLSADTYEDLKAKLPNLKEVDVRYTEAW
# UniProt Q8N9V3: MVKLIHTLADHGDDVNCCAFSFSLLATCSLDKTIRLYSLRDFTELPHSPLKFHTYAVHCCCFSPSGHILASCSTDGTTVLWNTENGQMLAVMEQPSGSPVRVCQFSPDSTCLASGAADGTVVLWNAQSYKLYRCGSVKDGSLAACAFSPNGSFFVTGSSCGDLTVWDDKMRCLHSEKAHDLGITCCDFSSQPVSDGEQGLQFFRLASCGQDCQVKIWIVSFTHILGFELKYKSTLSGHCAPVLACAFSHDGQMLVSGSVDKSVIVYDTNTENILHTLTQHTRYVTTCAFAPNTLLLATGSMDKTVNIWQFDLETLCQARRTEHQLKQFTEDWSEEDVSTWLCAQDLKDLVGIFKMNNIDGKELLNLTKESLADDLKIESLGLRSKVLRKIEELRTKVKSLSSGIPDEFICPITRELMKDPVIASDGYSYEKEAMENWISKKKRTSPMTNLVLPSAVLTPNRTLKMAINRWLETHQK
# UniProt Q8N4V1: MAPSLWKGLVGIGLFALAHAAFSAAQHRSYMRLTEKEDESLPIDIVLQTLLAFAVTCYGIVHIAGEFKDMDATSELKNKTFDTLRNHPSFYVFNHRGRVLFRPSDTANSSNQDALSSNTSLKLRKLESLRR
# UniProt Q86YC2, whole entry: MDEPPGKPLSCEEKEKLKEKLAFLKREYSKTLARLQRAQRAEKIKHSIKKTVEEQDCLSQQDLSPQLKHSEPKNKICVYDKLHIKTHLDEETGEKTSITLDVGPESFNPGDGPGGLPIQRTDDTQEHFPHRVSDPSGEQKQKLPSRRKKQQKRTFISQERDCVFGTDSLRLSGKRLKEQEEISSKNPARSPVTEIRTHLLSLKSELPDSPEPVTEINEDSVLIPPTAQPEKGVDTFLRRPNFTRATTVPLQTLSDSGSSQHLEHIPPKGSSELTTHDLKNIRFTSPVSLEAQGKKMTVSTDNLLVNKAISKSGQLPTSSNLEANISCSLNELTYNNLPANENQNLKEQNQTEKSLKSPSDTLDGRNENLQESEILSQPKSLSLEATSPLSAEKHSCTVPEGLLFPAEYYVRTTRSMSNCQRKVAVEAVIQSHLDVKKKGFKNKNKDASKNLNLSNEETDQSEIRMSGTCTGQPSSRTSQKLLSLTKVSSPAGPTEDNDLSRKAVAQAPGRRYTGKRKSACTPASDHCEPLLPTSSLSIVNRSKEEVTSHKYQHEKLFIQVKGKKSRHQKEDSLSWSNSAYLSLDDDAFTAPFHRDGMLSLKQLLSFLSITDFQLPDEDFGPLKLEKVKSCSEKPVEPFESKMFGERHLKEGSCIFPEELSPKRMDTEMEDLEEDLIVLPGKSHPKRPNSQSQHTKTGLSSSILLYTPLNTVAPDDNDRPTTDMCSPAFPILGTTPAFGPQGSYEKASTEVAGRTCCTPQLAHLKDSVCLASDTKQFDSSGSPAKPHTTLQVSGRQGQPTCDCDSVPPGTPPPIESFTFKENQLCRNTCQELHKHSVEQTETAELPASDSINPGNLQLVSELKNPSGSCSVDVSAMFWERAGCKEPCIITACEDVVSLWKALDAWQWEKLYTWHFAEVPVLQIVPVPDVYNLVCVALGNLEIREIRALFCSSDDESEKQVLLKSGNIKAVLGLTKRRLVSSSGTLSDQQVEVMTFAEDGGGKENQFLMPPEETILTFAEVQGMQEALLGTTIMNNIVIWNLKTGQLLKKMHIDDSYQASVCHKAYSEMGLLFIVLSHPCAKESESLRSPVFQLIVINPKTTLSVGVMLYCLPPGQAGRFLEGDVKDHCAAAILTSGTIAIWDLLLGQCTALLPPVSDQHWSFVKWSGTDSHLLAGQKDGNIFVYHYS
# Compound: Nc1ncnc2c1ncn2[C@@H]1O[C@H](COP(=O)(O)OP(=O)(O)NP(=O)(O)O)[C@@H](O)[C@H]1O [adenylyl imidodiphosphate]
# Test: NP40-soluble protein abundance relative to vehicle (solubility fold change) (ratio); higher = more soluble protein in presence of AMP-PNP
# How it was run: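 Each value is a fold change relative to the detergent-processed vehicle, calculated per replicate from vsn-normalised intensities. Jurkat crude lysate received eight concentrations (0.1 to 10 mM) for 10 min at room temperature and 3 min at 37 °C, then was solubilised in 0.8% NP40 with benzonase (60 min, 4 °C). The ultracentrifuged supernatant was TMT-labelled and run by LC-MS/MS in three independent experiments.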
Target,NP40-soluble protein abundance (concentration: 1mM),NP40-soluble protein abundance (concentration: 2mM),NP40-soluble protein abundance (concentration: 4mM),NP40-soluble protein abundance (concentration: 6mM),NP40-soluble protein abundance (concentration: 8mM),NP40-soluble protein abundance (concentration: 10mM)
UniProt Q8NBU5,1.02 ± 0.015,0.974 ± 0.029,0.993 ± 0.023,1 ± 0.019,1.01 ± 0.035,1.02 ± 0.041
ITPRIP (UniProt Q8IWB1),0.983 ± 0.019,0.9835 ± 0.0071,0.99259 ± 0.00082,0.993 ± 0.011,0.982 ± 0.048,0.977 ± 0.04
ARHGAP30 (UniProt Q7Z6I6),1.03 ± 0.016,1.03 ± 0.04,1.02 ± 0.019,1 ± 0.029,0.9876 ± 0.0094,0.997 ± 0.015
C9orf40 (UniProt Q8IXQ3),1 ± 0.021,1.02 ± 0.028,1 ± 0.032,0.993 ± 0.033,0.966 ± 0.028,0.98 ± 0.045
SLC15A4 (UniProt Q8N697),0.975 ± 0.026,0.971 ± 0.034,0.993 ± 0.042,0.985 ± 0.047,0.99 ± 0.022,0.992 ± 0.039
UniProt Q8IW45,0.989 ± 0.02,0.968 ± 0.033,1.006 ± 0.0069,0.969 ± 0.012,0.983 ± 0.018,0.982 ± 0.029
HSCB (UniProt Q8IWL3),0.957 ± 0.017,0.9776 ± 0.0059,0.9805 ± 0.0047,0.969 ± 0.033,0.974 ± 0.019,0.957 ± 0.025
SMYD4 (UniProt Q8IYR2),0.987 ± 0.032,1.01 ± 0.031,0.989 ± 0.031,0.95 ± 0.032,0.943 ± 0.015,0.957 ± 0.026
AGGF1 (UniProt Q8N302),1.04 ± 0.03,1.04 ± 0.068,1.04 ± 0.05,1.02 ± 0.037,1.03 ± 0.02,1.04 ± 0.025
UniProt Q8IUI8 and related entries,0.977 ± 0.018,0.943 ± 0.051,0.964 ± 0.012,0.979 ± 0.06,0.986 ± 0.044,0.946 ± 0.055
AACS (UniProt Q86V21),0.974 ± 0.021,0.923 ± 0.035,0.973 ± 0.024,0.931 ± 0.011,0.936 ± 0.01,0.9257 ± 0.0035
UBR7 (UniProt Q8N806),1.005 ± 0.0053,1 ± 0.015,0.995 ± 0.026,0.997 ± 0.037,1 ± 0.037,0.985 ± 0.041
UniProt Q86WA8 and related entries,0.994 ± 0.04,0.967 ± 0.089,1.02 ± 0.072,1.01 ± 0.07,0.989 ± 0.043,1.01 ± 0.084
UniProt Q86UX7 and related entries,0.963 ± 0.059,0.875 ± 0.075,0.958 ± 0.029,0.968 ± 0.065,1.02 ± 0.03,0.955 ± 0.03
UniProt Q8IUH3-3,1 ± 0.017,1 ± 0.066,1.02 ± 0.04,1.03 ± 0.034,1 ± 0.022,1.03 ± 0.037
UBR1 (UniProt Q8IWV7),1.01 ± 0.013,0.981 ± 0.071,0.993 ± 0.039,0.96 ± 0.012,0.955 ± 0.034,0.922 ± 0.021
THNSL1 (UniProt Q8IYQ7),0.995 ± 0.068,0.965 ± 0.08,1.01 ± 0.071,0.96 ± 0.031,0.989 ± 0.048,0.958 ± 0.048
UniProt Q8N511 and related entries,1.01 ± 0.022,1.03 ± 0.045,1.032 ± 0.0041,1.07 ± 0.023,1.09 ± 0.018,1.07 ± 0.026
UniProt Q8NB37,0.98 ± 0.017,0.967 ± 0.016,0.991 ± 0.03,0.991 ± 0.03,0.994 ± 0.019,0.996 ± 0.018
UniProt Q8IVW6 and related entries,1.05 ± 0.056,1.03 ± 0.013,1.06 ± 0.032,1.01 ± 0.018,1.02 ± 0.037,1.01 ± 0.063

Target,NP40-soluble protein abundance (concentration: 1mM),NP40-soluble protein abundance (concentration: 2mM),NP40-soluble protein abundance (concentration: 4mM),NP40-soluble protein abundance (concentration: 6mM),NP40-soluble protein abundance (concentration: 8mM),NP40-soluble protein abundance (concentration: 10mM)
UniProt Q86UY8 and related entries,0.99 ± 0.031,0.97 ± 0.065,0.976 ± 0.045,0.958 ± 0.035,1.01 ± 0.028,0.972 ± 0.04
DCP1B (UniProt Q8IZD4),0.996 ± 0.035,1.05 ± 0.04,1.03 ± 0.011,0.993 ± 0.018,0.964 ± 0.013,1.02 ± 0.021
RABEPK (UniProt Q7Z6M1),1.005 ± 0.0085,0.995 ± 0.021,1.02 ± 0.029,0.984 ± 0.025,0.978 ± 0.018,0.985 ± 0.022
UniProt Q8IY95 and related entries,1.01 ± 0.03,1.04 ± 0.03,0.983 ± 0.046,0.9721 ± 0.0046,0.959 ± 0.03,0.954 ± 0.015
UniProt Q8IXQ5 and related entries,0.984 ± 0.042,0.979 ± 0.018,0.974 ± 0.029,0.9744 ± 0.0094,0.983 ± 0.044,0.9769 ± 0.0044
UniProt Q86W50,0.984 ± 0.057,0.948 ± 0.052,1.02 ± 0.052,1.01 ± 0.039,1.01 ± 0.075,0.965 ± 0.091
CACUL1 (UniProt Q86Y37),1.03 ± 0.037,1.04 ± 0.017,1.04 ± 0.027,1 ± 0.014,1.02 ± 0.013,0.986 ± 0.025
ARFGAP1 (UniProt Q8N6T3),1.02 ± 0.021,1.02 ± 0.023,1.02 ± 0.016,1.02 ± 0.023,0.993 ± 0.018,1.01 ± 0.038
UniProt Q8IZ83 and related entries,0.978 ± 0.029,0.952 ± 0.066,0.951 ± 0.025,0.929 ± 0.066,0.926 ± 0.078,0.933 ± 0.078
RNF168 (UniProt Q8IYW5),1.01 ± 0.015,1.04 ± 0.023,1.04 ± 0.067,0.999 ± 0.036,0.989 ± 0.053,1.01 ± 0.018
UniProt Q8N5Y8 and related entries,1.03 ± 0.03,1.01 ± 0.02,1.02 ± 0.025,0.991 ± 0.038,1.03 ± 0.0023,0.988 ± 0.013
CISD2 (UniProt Q8N5K1),1.02 ± 0.039,0.968 ± 0.02,0.991 ± 0.036,0.987 ± 0.069,1.01 ± 0.016,0.969 ± 0.039
TTC5 (UniProt Q8N0Z6),1.01 ± 0.071,0.971 ± 0.04,0.998 ± 0.029,0.991 ± 0.073,1.03 ± 0.051,1.01 ± 0.014
C5orf24 (UniProt Q7Z6I8),1 ± 0.033,1.03 ± 0.051,1 ± 0.03,0.993 ± 0.013,0.974 ± 0.021,0.992 ± 0.011
UniProt Q7Z7F0,1.01 ± 0.049,1.07 ± 0.046,1.01 ± 0.048,1.064 ± 0.0095,1.03 ± 0.014,1.09 ± 0.04
UniProt Q86U86 and related entries,1.051 ± 0.009,1.1 ± 0.014,1.15 ± 0.017,1.226 ± 0.008,1.29 ± 0.035,1.37 ± 0.09
VPS52 (UniProt Q8N1B4),0.988 ± 0.021,0.959 ± 0.022,0.949 ± 0.011,0.922 ± 0.034,0.92 ± 0.043,0.909 ± 0.015
UniProt Q86V48 and related entries,1.04 ± 0.021,1.07 ± 0.041,1.09 ± 0.044,1.08 ± 0.025,1.08 ± 0.026,1.13 ± 0.013
UniProt Q86W92 and related entries,1.05 ± 0.018,1.07 ± 0.018,1.06 ± 0.016,1.01 ± 0.026,1.02 ± 0.029,1.02 ± 0.029
RASAL3 (UniProt Q86YV0),1 ± 0.018,0.988 ± 0.028,1.01 ± 0.017,0.969 ± 0.03,0.969 ± 0.046,0.954 ± 0.019

Target,NP40-soluble protein abundance (concentration: 1mM),NP40-soluble protein abundance (concentration: 2mM),NP40-soluble protein abundance (concentration: 4mM),NP40-soluble protein abundance (concentration: 6mM),NP40-soluble protein abundance (concentration: 8mM),NP40-soluble protein abundance (concentration: 10mM)
TMED4 (UniProt Q7Z7H5),1.017 ± 0.0076,0.973 ± 0.026,0.99 ± 0.032,1.02 ± 0.036,1.02 ± 0.025,1 ± 0.038
IRF2BP1 (UniProt Q8IU81),0.967 ± 0.014,1 ± 0.042,1 ± 0.018,0.979 ± 0.027,0.977 ± 0.013,0.989 ± 0.029
UniProt Q8NBM4 and related entries,0.95 ± 0.026,0.948 ± 0.017,0.934 ± 0.014,0.9469 ± 0.0045,0.944 ± 0.027,0.952 ± 0.039
PRPF39 (UniProt Q86UA1),0.987 ± 0.041,1 ± 0.053,1.03 ± 0.026,1 ± 0.054,0.996 ± 0.048,1.03 ± 0.021
UniProt Q8N3X1 and related entries,1.04 ± 0.042,1.12 ± 0.093,1.21 ± 0.11,1.45 ± 0.15,1.49 ± 0.17,1.58 ± 0.24
GPR180 (UniProt Q86V85),0.949 ± 0.019,0.999 ± 0.039,0.939 ± 0.014,1 ± 0.057,0.972 ± 0.048,1.01 ± 0.019
MICALL1 (UniProt Q8N3F8),1 ± 0.025,1.03 ± 0.089,0.999 ± 0.026,0.982 ± 0.019,0.962 ± 0.0098,0.983 ± 0.018
HOMER1 (UniProt Q86YM7),0.994 ± 0.029,1.03 ± 0.049,1.01 ± 0.039,1 ± 0.011,1.01 ± 0.026,0.9818 ± 0.0089
UniProt Q8IWI9 and related entries,1.02 ± 0.023,1.01 ± 0.021,1.01 ± 0.047,0.953 ± 0.014,0.924 ± 0.029,0.944 ± 0.046
GLRX5 (UniProt Q86SX6),1.02 ± 0.047,1.1 ± 0.11,1.004 ± 0.0095,0.996 ± 0.029,0.948 ± 0.019,0.953 ± 0.018
NUDCD3 (UniProt Q8IVD9),1.03 ± 0.047,1.09 ± 0.02,1 ± 0.047,0.977 ± 0.058,0.94 ± 0.067,1.01 ± 0.055
UniProt Q8NBN3 and related entries,0.979 ± 0.039,1.02 ± 0.096,0.978 ± 0.057,0.982 ± 0.058,0.99 ± 0.045,1.01 ± 0.052
UniProt Q8IXB1 and related entries,0.969 ± 0.035,0.923 ± 0.061,0.943 ± 0.032,0.971 ± 0.033,0.97 ± 0.022,0.972 ± 0.046
ANKRD13A (UniProt Q8IZ07),0.985 ± 0.017,0.981 ± 0.013,1.04 ± 0.029,1.06 ± 0.061,1.04 ± 0.03,1.08 ± 0.047
CMIP (UniProt Q8IY22),0.986 ± 0.047,0.964 ± 0.031,0.942 ± 0.029,0.958 ± 0.046,0.935 ± 0.022,0.923 ± 0.043
UniProt Q8N9V3 and related entries,0.984 ± 0.038,0.99 ± 0.0057,0.968 ± 0.048,0.971 ± 0.013,0.961 ± 0.044,0.971 ± 0.011
UniProt Q8N4V1 and related entries,0.976 ± 0.018,0.988 ± 0.042,0.9576 ± 0.0062,1.02 ± 0.015,1.02 ± 0.024,0.9843 ± 0.0083
UniProt Q8IWF6,1.03 ± 0.044,0.985 ± 0.07,1.009 ± 0.0059,0.99 ± 0.013,0.9971 ± 0.0016,0.996 ± 0.013
UniProt Q7Z6L1 and related entries,0.934 ± 0.02,0.973 ± 0.034,0.9552 ± 0.0059,0.945 ± 0.038,0.911 ± 0.022,0.9308 ± 0.0085
PALB2 (UniProt Q86YC2),0.988 ± 0.015,0.993 ± 0.032,0.9748 ± 0.0057,0.9809 ± 0.0065,0.995 ± 0.021,0.9869 ± 0.0046

# Random excerpt: 3 entries already listed
Target,NP40-soluble protein abundance (concentration: 1mM),NP40-soluble protein abundance (concentration: 2mM),NP40-soluble protein abundance (concentration: 4mM),NP40-soluble protein abundance (concentration: 6mM),NP40-soluble protein abundance (concentration: 8mM),NP40-soluble protein abundance (concentration: 10mM)
UniProt Q86W50,0.984 ± 0.057,0.948 ± 0.052,1.02 ± 0.052,1.01 ± 0.039,1.01 ± 0.075,0.965 ± 0.091
MICALL1 (UniProt Q8N3F8),1 ± 0.025,1.03 ± 0.089,0.999 ± 0.026,0.982 ± 0.019,0.962 ± 0.0098,0.983 ± 0.018
PALB2 (UniProt Q86YC2),0.988 ± 0.015,0.993 ± 0.032,0.9748 ± 0.0057,0.9809 ± 0.0065,0.995 ± 0.021,0.9869 ± 0.0046

# — the supplement of paper PMC6411743
